Data from the supplement of paper PMC10849652.
The list shows a part of the results.

Protein sequences, listed by entry. Tags and fused reporters are not part of them. Lines headed by an entry give the natural chain unless they say otherwise; changes in a name come on top.
UniProt Q9BUF5, whole entry, looked up: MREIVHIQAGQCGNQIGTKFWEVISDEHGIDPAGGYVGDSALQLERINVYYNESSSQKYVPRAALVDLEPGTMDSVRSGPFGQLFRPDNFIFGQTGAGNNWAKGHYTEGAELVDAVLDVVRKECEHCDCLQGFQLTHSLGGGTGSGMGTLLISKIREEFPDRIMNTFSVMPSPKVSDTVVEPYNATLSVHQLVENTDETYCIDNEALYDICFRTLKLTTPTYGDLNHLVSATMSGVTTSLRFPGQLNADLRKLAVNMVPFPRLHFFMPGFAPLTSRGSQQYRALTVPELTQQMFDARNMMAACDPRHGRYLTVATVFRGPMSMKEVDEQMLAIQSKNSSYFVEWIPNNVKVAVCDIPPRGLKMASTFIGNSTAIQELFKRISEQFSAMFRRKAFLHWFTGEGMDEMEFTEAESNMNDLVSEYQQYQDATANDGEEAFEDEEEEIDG
UniProt Q9NUQ3: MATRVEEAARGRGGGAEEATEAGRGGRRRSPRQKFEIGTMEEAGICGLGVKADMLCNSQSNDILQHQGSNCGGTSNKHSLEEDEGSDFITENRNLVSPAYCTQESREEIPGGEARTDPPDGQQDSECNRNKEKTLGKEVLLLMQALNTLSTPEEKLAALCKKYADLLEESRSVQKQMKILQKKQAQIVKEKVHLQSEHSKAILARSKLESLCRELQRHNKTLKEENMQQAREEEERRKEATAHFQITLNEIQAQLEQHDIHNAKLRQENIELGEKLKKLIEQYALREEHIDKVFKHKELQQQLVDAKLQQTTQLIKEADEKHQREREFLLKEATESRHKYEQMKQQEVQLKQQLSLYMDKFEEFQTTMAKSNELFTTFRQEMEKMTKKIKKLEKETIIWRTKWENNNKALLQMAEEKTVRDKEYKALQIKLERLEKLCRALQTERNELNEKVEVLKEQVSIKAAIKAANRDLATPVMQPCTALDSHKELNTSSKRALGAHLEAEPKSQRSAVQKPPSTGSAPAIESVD
UniProt Q6IPR3: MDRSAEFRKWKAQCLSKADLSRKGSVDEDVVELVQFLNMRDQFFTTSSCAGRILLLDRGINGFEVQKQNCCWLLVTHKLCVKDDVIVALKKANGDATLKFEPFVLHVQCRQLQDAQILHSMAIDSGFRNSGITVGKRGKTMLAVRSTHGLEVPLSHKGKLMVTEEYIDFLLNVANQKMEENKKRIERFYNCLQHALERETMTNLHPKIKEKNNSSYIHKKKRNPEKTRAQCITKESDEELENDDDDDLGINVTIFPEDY
UniProt Q9H4B7, whole entry, looked up: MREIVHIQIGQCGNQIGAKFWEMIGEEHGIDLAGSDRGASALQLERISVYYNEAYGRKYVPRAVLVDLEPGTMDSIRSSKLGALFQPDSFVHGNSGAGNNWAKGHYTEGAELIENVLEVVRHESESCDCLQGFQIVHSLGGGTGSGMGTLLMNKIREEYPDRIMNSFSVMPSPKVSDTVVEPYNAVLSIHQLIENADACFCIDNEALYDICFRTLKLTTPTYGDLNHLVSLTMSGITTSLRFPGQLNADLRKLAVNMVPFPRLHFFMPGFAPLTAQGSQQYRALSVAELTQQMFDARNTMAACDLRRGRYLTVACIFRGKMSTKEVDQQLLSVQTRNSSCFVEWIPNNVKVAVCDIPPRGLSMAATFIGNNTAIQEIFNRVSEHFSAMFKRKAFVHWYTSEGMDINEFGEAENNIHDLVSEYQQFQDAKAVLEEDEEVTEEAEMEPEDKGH
UniProt Q8TBC4: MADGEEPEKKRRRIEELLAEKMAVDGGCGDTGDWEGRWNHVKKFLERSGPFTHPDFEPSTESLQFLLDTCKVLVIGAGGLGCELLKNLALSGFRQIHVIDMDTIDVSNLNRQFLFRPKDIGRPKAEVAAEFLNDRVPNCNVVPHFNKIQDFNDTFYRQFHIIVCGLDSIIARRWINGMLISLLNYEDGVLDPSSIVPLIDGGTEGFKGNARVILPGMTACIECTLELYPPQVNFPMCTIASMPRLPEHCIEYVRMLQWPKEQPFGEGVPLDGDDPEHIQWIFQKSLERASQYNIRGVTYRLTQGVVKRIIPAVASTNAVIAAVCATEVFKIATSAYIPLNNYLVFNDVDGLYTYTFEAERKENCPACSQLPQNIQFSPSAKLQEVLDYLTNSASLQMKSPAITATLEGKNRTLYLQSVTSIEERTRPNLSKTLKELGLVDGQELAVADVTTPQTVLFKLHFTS
UniProt P68543: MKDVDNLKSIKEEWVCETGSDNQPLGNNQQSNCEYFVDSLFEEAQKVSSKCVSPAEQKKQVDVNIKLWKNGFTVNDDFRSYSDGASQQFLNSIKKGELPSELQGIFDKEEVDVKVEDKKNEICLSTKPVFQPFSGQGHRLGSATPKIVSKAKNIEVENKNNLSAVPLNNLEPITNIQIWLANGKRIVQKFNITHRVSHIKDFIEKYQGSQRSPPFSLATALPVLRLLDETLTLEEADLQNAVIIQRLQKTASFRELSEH
UniProt Q9BTX7: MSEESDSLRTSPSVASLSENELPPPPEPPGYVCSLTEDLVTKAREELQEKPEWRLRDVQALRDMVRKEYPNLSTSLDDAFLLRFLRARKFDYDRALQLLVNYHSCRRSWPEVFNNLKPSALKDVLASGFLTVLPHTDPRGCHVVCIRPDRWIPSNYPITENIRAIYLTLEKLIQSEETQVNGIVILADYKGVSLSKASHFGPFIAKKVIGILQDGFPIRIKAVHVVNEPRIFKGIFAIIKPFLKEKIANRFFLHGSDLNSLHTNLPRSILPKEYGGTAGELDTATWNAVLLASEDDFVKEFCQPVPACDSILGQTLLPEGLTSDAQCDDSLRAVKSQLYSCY
UniProt Q16881, whole entry, looked up: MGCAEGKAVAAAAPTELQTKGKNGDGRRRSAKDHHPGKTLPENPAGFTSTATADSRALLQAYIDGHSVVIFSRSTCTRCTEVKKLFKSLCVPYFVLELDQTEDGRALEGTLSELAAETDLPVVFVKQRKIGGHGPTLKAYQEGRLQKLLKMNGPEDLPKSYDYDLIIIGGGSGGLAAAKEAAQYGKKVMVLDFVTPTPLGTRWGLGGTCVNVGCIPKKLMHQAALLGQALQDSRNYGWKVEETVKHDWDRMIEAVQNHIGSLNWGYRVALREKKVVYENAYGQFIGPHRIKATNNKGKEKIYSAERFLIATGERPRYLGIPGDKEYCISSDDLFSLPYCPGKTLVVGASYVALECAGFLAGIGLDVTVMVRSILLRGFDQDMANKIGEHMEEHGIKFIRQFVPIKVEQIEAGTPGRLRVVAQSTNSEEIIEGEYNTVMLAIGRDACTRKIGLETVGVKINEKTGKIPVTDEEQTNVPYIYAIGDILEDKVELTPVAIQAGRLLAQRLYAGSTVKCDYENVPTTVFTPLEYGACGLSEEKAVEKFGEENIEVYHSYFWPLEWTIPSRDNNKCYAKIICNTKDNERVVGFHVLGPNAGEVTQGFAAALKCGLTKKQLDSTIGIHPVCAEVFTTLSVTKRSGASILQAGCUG
UniProt Q9UHD9, whole entry, looked up: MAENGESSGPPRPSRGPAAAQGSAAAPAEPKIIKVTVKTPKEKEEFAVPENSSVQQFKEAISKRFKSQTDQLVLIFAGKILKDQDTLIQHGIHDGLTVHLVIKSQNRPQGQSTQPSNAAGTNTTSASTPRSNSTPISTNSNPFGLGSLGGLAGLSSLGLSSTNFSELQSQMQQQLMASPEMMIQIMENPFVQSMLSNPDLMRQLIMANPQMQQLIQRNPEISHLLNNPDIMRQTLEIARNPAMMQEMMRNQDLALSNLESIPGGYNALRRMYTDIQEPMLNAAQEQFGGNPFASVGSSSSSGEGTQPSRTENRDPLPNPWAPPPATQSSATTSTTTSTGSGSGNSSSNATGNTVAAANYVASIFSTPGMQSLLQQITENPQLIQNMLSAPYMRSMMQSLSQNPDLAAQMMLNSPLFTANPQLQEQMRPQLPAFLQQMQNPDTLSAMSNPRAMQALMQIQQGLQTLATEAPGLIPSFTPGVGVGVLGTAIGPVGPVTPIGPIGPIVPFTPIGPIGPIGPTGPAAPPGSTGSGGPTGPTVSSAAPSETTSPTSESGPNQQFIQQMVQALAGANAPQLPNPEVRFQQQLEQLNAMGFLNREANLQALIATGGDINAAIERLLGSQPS
UniProt Q99757: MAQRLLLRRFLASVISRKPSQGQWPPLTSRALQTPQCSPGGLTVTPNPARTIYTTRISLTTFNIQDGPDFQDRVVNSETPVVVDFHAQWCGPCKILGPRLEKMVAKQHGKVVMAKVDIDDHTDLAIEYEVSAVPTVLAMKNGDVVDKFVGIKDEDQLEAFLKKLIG
UniProt Q5JXB2: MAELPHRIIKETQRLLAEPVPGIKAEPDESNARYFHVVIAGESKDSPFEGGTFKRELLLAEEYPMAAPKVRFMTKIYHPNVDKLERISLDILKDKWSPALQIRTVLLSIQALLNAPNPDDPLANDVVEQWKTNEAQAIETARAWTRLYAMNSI
UniProt O15042: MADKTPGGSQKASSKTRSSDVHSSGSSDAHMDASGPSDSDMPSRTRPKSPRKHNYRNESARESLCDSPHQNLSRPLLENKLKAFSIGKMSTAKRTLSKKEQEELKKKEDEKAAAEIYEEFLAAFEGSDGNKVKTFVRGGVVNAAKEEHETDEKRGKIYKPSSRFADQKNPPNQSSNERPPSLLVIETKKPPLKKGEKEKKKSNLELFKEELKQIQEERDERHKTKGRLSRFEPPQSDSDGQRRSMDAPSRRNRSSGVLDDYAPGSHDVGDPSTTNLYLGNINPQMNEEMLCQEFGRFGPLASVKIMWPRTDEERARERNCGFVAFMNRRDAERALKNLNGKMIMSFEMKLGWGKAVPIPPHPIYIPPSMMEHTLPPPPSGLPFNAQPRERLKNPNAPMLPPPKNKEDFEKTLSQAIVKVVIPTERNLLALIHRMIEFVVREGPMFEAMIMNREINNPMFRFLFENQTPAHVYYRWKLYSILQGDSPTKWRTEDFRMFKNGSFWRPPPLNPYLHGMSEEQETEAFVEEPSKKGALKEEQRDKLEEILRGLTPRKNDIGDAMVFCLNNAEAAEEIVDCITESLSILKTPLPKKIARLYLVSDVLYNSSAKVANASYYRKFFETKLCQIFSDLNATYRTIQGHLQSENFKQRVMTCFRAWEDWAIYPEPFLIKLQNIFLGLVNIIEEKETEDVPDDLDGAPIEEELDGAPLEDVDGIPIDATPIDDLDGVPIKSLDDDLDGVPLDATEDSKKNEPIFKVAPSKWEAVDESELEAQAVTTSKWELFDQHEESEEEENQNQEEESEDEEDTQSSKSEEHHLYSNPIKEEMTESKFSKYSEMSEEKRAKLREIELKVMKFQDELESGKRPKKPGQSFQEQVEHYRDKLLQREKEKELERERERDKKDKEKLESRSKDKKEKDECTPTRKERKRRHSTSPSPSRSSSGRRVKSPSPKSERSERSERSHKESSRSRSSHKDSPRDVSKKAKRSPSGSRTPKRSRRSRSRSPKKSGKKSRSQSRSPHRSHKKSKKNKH
UniProt Q9UMX0, whole entry, looked up: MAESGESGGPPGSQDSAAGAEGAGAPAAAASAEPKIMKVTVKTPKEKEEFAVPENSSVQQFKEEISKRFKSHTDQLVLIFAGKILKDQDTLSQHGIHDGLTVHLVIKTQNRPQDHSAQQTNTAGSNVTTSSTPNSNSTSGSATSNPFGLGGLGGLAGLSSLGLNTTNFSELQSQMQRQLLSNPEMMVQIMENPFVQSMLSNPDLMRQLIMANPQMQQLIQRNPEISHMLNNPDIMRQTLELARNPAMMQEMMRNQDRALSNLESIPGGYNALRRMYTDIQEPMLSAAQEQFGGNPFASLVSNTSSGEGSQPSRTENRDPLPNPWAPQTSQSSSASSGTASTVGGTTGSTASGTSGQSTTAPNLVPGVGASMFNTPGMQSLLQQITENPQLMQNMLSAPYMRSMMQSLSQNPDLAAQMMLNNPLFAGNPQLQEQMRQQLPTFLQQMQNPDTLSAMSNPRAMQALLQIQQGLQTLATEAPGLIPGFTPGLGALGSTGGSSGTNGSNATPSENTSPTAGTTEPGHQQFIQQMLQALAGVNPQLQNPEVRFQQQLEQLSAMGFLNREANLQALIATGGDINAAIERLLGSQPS
UniProt Q12792, whole entry, looked up: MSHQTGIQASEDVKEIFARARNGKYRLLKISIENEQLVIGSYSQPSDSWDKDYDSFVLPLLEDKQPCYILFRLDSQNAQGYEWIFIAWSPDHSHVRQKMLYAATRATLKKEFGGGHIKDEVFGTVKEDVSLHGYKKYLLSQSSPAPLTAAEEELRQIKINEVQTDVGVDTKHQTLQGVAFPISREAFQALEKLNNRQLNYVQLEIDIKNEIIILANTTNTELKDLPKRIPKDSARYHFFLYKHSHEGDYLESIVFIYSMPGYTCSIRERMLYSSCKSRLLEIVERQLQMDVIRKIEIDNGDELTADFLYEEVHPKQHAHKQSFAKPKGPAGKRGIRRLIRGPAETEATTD
UniProt P83876: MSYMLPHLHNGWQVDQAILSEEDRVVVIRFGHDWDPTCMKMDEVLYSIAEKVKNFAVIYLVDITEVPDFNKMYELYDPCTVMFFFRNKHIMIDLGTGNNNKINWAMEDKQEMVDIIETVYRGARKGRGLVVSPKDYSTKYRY
UniProt P61077: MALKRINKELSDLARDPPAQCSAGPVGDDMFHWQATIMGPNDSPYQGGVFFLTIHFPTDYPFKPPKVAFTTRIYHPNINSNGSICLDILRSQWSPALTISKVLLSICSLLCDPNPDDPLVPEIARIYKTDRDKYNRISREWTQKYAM

compound: Cc1sc2c(c1C)C(c1ccc(Cl)cc1)=N[C@@H](CC(=O)OC(C)(C)C)c1nnc(C)n1-2; assay: log2 fold change, soluble protein after heating vs DMSO (PISA); higher = thermal stabilisation; K562 lysate, 10 uM; active = over 0.2 and 3.5 SD of the protein, either way, in both replicates (recomputed)
Outline: (§1)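 Soluble protein was defined as the supernatant remaining after 21,000xg for 90 min, following pooling of heated aliquots and adjustment to 0.5% NP-40 at 4°C. Before that, crude K562 extract at 1 mg/mL protein in PBS pH 7.4 with 1 mM MgCl2 was treated with 10 μM compound for 30 min and heated for 3 min across 48°C-58°C. Quantification used TMTpro 16plex LC-MS/MS with channel sums equalised, and values are log-two fold changes in thermal stability relative to solvent controls from duplicates.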

Row | Target | log2 fold change
1 | TXNDC12 (UniProt O95881) | inactive: -0.017
2 | UBAC2 (UniProt Q8NBM4) | inactive: -0.077
3 | UBE2H (UniProt P62256) | inactive: -0.046
4 | TUBB4B (UniProt P68371) | inactive: 0.042
5 | TUBB6 (UniProt Q9BUF5) | inactive: 0.017
6 | UBE2M (UniProt P61081) | inactive: 0.03
7 | TXLNG (UniProt Q9NUQ3) | inactive: 0.011
8 | UBE2G1 (UniProt P62253) | inactive: -0.028
9 | TYW3 (UniProt Q6IPR3) | inactive: -0.029
10 | UBE2Q2 (UniProt Q8WVN8) | inactive: 0.153
11 | TUBB1 (UniProt Q9H4B7) | inactive: 0.063
12 | UBA3 (UniProt Q8TBC4) | inactive: -0.019
13 | UAP1L1 (UniProt Q3KQV9) | inactive: -0.073
14 | UBXN2A (UniProt P68543) | inactive: -0.021
15 | TTPAL (UniProt Q9BTX7) | inactive: -0.043
16 | TXNRD1 isoform 7 (UniProt Q16881) | inactive: -0.079

Row | Target | log2 fold change
17 | UBQLN2 (UniProt Q9UHD9) | inactive: -0.05
18 | TXN2 (UniProt Q99757) | inactive: 0
19 | TXNIP (UniProt Q9H3M7) | inactive: 0.016
20 | UBE2NL (UniProt Q5JXB2) | inactive: 0.009
21 | TXLNA (UniProt P40222) | inactive: 0.001
22 | U2SURP (UniProt O15042) | inactive: 0.065
23 | TUFM (UniProt P49411) | inactive: 0.071
24 | UBE2Q1 (UniProt Q7Z7E8) | inactive: -0.074
25 | UBXN7 (UniProt O94888) | inactive: -0.02
26 | UBQLN1 (UniProt Q9UMX0) | inactive: 0.018
27 | TWF1 (UniProt Q12792) | inactive: -0.03
28 | TUBB3 (UniProt Q13509) | inactive: 0.008
29 | TXNRD1 (UniProt Q16881) | inactive: -0.033
30 | TXNL4A (UniProt P83876) | inactive: -0.001
31 | UBE2D3 isoform 3 (UniProt P61077) | inactive: 0.095

compound: c1ccc([C@@H]2C[C@H]2NC2CCNCC2)cc1; assay: as above
Outline: as §1

Row | Target | log2 fold change
32 | TXNDC12 (UniProt O95881) | inactive: -0.007
33 | UBAC2 (UniProt Q8NBM4) | inactive: -0.095
34 | UBE2H (UniProt P62256) | inactive: 0.095
35 | TUBB6 (UniProt K7ES63) | inactive: -0.085
36 | TUBB4B (UniProt P68371) | inactive: 0.049
37 | TUBB6 (UniProt Q9BUF5) | inactive: 0.027
38 | UBE2M (UniProt P61081) | inactive: -0.053
39 | TXLNG (UniProt Q9NUQ3) | inactive: -0.008
40 | UBE2G1 (UniProt P62253) | inactive: 0.017
41 | TYW3 (UniProt Q6IPR3) | inactive: -0.067
42 | UBE2Q2 (UniProt Q8WVN8) | inactive: 0.117
43 | TUBB1 (UniProt Q9H4B7) | inactive: 0.087
44 | UBA3 (UniProt Q8TBC4) | inactive: 0
45 | UAP1L1 (UniProt Q3KQV9) | inactive: 0.043
46 | UBXN2A (UniProt P68543) | inactive: -0.075
47 | TTPAL (UniProt Q9BTX7) | inactive: -0.056
48 | TXNRD1 isoform 7 (UniProt Q16881) | inactive: -0.231

Row | Target | log2 fold change
49 | UBQLN2 (UniProt Q9UHD9) | inactive: -0.014
50 | TXN2 (UniProt Q99757) | inactive: -0.119
51 | TXNIP (UniProt Q9H3M7) | inactive: 0.087
52 | UBE2NL (UniProt Q5JXB2) | inactive: 0.068
53 | TXLNA (UniProt P40222) | inactive: 0.015
54 | U2SURP (UniProt O15042) | inactive: 0.025
55 | TUFM (UniProt P49411) | inactive: 0.083
56 | UBE2Q1 (UniProt Q7Z7E8) | inactive: -0.037
57 | UBXN7 (UniProt O94888) | inactive: -0.037
58 | UBQLN1 (UniProt Q9UMX0) | inactive: 0.051
59 | TWF1 (UniProt Q12792) | inactive: 0.074
60 | TUBB3 (UniProt Q13509) | inactive: 0.01
61 | TXNRD1 (UniProt Q16881) | inactive: -0.034
62 | TXNL4A (UniProt P83876) | inactive: -0.01
63 | UBE2D3 isoform 3 (UniProt P61077) | inactive: -0.023
64 | TUBB4A (UniProt M0QYM7) | inactive: -0.074
